Values from PubChem BioAssay AID1259264 (Sanger Institute, 2017)

Assay: 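Kinases whose loss cuts CL40 colorectal cancer cell survival, alone or with drugs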 (primary screen)
Cells: CL40 human colorectal cancer cells
Knock-down reagent: siRNA pool against human genes
Challenge: DMSO, or an anchor drug: BYL719 at 1 µM, cetuximab at 5 µg/ml, or trametinib at 10 nM
Measurement: 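Viability as a fraction of non-targeting pool control (replicates averaged), control-based robust z-score, plus averaged synergy for each drug: BYL719 1 µM, cetuximab 5 µg/ml, trametinib 10 nM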
Reading the numbers: robust z-score, siRNA alone: higher = more viable cells
Rule for the call: 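Essential call: siRNA with no drug reaches a robust z under -3 (low cell count); drug synergy scores do not affect it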
Calls: active = essential (lowers viability alone); inactive = not essential
Here is an unselected part of 794 deposited reagents. 15 of them (1.9%) were called active. 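Calls rest on knock-down alone at z-score below -3; synergy scores with the three drugs do not decide them.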 Further read-outs or replicates are left out here. Not given: the amount of reagent, the time to read-out.

For NME6, what was measured?
robust z-score, siRNA alone: -1.08; call: inactive

With MPP3, what does the deposit list?
robust z-score, siRNA alone: -0.252; call: inactive

With STK36, what was measured?
robust z-score, siRNA alone: 0.539; call: inactive

How did the screen score CDKL2?
robust z-score, siRNA alone: 0.539; call: inactive

With TRIB3, what does the deposit list?
robust z-score, siRNA alone: -1.47; call: inactive

What is on record for RIOK3?
robust z-score, siRNA alone: 0.539; call: inactive

Taken from above.
TRIB3, call → inactive
For “call”, MPP3 has inactive

Continued:
What is on record for PRPS1?
robust z-score, siRNA alone: 0.539; call: inactive

What did the screen give for HSPB8?
robust z-score, siRNA alone: 0.539; call: inactive

For PKIA, how do the results read?
robust z-score, siRNA alone: -0.2; call: inactive

With CDK9, what does the deposit list?
robust z-score, siRNA alone: 0.0955; call: inactive

For CSNK1G2, what does the deposit list?
robust z-score, siRNA alone: 0.539; call: inactive

How did the screen score PKDCC?
robust z-score, siRNA alone: -0.545; call: inactive
